Data published in patent US20180055768A1.

Chains of the proteins cited; added tags and fusions are not shown.
UniProt O00308: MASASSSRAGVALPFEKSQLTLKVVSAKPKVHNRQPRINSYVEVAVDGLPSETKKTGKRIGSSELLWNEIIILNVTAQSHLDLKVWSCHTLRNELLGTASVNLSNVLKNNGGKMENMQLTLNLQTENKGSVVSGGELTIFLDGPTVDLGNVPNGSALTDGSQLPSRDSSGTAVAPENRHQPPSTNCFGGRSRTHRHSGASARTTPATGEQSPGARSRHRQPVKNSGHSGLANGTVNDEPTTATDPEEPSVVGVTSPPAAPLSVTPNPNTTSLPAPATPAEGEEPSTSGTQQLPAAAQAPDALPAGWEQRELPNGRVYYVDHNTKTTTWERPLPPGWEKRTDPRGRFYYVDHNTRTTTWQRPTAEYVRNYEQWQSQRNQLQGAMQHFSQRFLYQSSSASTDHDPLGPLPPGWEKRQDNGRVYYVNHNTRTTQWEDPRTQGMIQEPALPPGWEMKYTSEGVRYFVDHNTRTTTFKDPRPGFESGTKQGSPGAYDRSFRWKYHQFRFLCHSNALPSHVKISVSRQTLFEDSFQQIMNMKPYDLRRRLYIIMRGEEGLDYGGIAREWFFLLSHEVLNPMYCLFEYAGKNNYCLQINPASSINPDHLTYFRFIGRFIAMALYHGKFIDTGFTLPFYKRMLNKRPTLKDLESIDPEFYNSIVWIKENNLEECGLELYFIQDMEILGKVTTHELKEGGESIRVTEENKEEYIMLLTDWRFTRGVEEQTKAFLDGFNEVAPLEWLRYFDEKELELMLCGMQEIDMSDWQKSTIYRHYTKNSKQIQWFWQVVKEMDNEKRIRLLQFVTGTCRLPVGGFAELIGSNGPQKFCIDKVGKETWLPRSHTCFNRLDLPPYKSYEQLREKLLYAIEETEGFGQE

Target: WWP2 (endogenous, identified in ARRDC1 immunoprecipitates of 293T cell lysates) (UniProt O00308)
Assay: immunoprecipitation of endogenous ARRDC1 from 293T lysates with anti-ARRDC1 rabbit antibody, mass spectrometry

B1: endogenous ARRDC1 (293T cells) (protein)
chain: MGRVQLFEISLSHGRVVYSPGEPLAGTVRVRLGAPLPFRAIRVTCIGSCGVSNKANDTAWVVEEGYFNSSLSLADKGSLPAGEHSFPFQFLLPATAPTSFEGPFGKIVHQVRAAIHTPRFSKDHKCSLVFYILSPLNLNSIPDIEQPNVASATKKFSYKLVKTGSVVLTASTDLRGYVVGQALQLHADVENQSGKDTSPVVASLLQKVSYKAKRWIHDVRTIAEVEGAGVKAWRRAQWHEQILVPALPQSALPGCSLIHIDYYLQVSLKAPEATVTLPVFIGNIAVNHAPVSPRPGLGLPPGAPPLVVPSAPPQEEAEAEAAAGGPHFLDPVFLSTKSHSQRQPLLATLSSVPGAPEPCPQDGSPASHPLHPPLCISTGATVPYFAEGSGGPVPTTSTLILPPEYSSWGYPYEAPPSYEQSCGGVEPSLTPES
binding: binds

These are yes or no findings as the source states them, for the method shown. Binding seen in cells or lysates may run through a third protein. Here binding means that the protein was enriched with, or labelled near, the bait; the list need not be complete.
